Measured values reported in paper PMC9974466 (Proceedings of the National Academy of Sciences of the …, 2023).

B1: pro[P1]PTH: mutant pro-hormone secreted by COS-7 cells expressing prepro[P1]PTH(1-84) and present in patients' plasma (protein, UniProt P01270 26-115, looked up, variant S1P)
pro-form: KSVKKRPVSEIQLMHNLGKHLNSMERVEWLRKKLQDVHNFVALGAPLAPRDAGSQRPRKKEDNVLVESHEKSLGEADKADVNVLTKAKSQ
modifications: pro-form
notes: mutant pro-hormone secreted by COS-7 cells expressing prepro[P1]PTH(1-84) and present in patients' plasma

Test system: intact PTH assay antibodies: capture anti-PTH(39-84), detection anti-PTH(13-34)
Assay: PTH concentration in CM/fractions/plasma by intact PTH assay (Immutopics ELISA)
Details: for Dilution parallelism in intact PTH assay: serial dilutions vs PTH(1-84) standard curve

Molecule	Dilution parallelism in intact PTH assay	Concentration of pro[P1]PTH in undiluted CM (COS-7 cells transfected in T175 flask with prepro[P1]PTH(1-84) plasmid, intact PTH assay, used as standard)
SVSEIQ … LMHNLGKHLNSMERVEWLRKKLQDVHNFVALGAPLAPRDAGSQRPRKKEDNVLVESHEKSLGEADKADVNVLTKAKSQ [PTH(1-84), Recombinant PTH(1-84) was from Chugai Pharmaceutical Co., Ltd]	run in parallel	
B1	run in parallel	4,825 pg/mL
